Results taken from the supplement of paper PMC10849652.
The list shows a part of the results.

Protein sequences, listed by entry. Tags and fused reporters are not part of them. Lines headed by an entry give the natural chain unless they say otherwise; changes in a name come on top.
UniProt Q13435: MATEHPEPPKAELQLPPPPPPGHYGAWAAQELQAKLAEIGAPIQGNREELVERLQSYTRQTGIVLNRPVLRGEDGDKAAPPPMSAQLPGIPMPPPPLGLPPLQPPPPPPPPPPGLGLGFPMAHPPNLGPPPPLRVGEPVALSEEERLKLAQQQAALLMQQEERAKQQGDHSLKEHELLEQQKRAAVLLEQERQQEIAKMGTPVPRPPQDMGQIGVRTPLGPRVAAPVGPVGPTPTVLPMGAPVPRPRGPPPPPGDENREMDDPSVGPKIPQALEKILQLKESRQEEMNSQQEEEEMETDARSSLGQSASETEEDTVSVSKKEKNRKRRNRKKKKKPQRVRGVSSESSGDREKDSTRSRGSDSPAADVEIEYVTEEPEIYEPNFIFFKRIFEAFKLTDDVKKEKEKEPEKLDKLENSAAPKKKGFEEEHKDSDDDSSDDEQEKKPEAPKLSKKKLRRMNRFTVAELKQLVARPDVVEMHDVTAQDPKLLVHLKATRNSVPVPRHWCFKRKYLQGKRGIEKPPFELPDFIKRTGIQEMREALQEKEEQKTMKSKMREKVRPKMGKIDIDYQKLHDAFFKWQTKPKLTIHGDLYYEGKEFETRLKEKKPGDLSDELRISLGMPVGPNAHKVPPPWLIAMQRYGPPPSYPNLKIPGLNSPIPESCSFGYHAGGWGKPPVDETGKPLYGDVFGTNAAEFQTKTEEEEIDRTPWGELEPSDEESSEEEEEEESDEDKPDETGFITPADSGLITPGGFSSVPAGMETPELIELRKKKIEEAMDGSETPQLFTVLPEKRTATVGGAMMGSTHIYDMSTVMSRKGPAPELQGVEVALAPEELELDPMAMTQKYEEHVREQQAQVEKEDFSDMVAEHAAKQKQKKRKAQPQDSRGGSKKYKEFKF
UniProt Q99720, whole entry, looked up: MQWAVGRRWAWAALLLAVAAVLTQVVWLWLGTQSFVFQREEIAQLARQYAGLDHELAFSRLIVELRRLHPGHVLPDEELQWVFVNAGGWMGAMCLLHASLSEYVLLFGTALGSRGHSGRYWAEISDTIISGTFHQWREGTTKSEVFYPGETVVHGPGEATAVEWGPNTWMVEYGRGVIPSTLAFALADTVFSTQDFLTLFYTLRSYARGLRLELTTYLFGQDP
UniProt Q13228: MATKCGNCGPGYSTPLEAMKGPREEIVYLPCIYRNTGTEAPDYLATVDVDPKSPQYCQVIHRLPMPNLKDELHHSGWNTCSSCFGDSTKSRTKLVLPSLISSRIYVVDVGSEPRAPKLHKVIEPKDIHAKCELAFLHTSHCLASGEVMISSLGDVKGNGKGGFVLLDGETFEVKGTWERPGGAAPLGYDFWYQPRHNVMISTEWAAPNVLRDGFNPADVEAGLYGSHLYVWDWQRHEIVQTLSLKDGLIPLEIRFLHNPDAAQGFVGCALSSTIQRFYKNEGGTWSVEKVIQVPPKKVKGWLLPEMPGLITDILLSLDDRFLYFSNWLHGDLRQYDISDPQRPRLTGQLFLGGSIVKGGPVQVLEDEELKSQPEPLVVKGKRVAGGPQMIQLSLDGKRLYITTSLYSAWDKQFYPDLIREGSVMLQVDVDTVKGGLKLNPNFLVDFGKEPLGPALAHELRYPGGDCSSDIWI
UniProt Q9NXA8: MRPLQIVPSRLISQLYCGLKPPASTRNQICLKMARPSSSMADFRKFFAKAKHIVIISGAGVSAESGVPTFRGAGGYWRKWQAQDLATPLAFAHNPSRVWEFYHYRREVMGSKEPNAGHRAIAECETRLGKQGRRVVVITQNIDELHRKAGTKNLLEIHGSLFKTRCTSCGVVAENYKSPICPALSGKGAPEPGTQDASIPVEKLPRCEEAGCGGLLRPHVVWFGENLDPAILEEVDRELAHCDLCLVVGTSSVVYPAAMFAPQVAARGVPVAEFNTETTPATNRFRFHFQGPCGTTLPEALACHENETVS
UniProt Q14141: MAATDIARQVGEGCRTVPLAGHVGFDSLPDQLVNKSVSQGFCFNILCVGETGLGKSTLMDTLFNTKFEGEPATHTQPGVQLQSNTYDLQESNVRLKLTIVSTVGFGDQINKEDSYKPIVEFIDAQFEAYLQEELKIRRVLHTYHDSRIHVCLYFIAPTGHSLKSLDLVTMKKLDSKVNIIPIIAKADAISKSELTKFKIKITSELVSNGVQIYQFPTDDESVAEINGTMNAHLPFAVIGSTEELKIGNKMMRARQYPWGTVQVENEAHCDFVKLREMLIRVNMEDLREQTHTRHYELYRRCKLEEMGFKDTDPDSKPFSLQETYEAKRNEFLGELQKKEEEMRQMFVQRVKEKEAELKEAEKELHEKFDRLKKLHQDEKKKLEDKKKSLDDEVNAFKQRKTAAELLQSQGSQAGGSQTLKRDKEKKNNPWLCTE
UniProt P50452: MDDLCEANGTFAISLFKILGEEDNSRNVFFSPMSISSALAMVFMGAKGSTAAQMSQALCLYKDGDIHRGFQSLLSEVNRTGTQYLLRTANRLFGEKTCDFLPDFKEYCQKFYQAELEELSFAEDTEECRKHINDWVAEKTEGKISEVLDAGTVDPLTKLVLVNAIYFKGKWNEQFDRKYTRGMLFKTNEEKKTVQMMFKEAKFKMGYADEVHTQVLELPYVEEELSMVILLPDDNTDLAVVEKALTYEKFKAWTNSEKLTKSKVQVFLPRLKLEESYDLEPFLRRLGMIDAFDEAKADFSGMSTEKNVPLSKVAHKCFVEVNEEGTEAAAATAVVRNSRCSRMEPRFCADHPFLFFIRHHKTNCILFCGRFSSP
UniProt Q96EQ0: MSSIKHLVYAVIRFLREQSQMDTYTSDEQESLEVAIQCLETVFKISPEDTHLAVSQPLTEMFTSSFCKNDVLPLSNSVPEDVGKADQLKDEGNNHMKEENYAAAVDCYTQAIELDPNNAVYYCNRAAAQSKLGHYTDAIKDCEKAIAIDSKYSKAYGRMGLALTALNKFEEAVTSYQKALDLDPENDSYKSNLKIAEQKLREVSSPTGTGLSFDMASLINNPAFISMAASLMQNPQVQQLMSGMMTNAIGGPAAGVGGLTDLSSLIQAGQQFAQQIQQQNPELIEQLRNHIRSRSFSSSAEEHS
UniProt Q99442: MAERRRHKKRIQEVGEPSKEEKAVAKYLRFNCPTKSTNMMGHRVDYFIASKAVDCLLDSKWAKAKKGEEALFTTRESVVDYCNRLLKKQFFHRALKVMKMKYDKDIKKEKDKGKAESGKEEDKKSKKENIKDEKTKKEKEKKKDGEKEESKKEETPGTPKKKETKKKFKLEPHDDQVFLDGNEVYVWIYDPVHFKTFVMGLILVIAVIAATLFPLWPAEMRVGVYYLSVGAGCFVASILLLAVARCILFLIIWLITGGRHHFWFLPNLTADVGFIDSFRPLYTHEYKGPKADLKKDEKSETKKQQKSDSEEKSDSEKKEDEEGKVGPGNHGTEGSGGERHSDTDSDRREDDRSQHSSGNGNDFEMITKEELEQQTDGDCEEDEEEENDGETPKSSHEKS
UniProt Q86VZ5: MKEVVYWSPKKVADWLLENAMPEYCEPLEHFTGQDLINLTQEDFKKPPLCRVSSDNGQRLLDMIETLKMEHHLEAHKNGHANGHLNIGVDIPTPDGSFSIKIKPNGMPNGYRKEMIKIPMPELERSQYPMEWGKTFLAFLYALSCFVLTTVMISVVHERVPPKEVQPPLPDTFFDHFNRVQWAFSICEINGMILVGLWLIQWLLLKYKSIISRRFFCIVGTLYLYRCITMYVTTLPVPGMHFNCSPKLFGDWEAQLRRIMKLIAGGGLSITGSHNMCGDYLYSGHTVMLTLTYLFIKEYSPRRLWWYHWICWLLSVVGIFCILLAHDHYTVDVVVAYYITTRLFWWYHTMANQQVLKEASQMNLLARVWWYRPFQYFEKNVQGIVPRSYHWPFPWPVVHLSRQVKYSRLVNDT
UniProt Q12872: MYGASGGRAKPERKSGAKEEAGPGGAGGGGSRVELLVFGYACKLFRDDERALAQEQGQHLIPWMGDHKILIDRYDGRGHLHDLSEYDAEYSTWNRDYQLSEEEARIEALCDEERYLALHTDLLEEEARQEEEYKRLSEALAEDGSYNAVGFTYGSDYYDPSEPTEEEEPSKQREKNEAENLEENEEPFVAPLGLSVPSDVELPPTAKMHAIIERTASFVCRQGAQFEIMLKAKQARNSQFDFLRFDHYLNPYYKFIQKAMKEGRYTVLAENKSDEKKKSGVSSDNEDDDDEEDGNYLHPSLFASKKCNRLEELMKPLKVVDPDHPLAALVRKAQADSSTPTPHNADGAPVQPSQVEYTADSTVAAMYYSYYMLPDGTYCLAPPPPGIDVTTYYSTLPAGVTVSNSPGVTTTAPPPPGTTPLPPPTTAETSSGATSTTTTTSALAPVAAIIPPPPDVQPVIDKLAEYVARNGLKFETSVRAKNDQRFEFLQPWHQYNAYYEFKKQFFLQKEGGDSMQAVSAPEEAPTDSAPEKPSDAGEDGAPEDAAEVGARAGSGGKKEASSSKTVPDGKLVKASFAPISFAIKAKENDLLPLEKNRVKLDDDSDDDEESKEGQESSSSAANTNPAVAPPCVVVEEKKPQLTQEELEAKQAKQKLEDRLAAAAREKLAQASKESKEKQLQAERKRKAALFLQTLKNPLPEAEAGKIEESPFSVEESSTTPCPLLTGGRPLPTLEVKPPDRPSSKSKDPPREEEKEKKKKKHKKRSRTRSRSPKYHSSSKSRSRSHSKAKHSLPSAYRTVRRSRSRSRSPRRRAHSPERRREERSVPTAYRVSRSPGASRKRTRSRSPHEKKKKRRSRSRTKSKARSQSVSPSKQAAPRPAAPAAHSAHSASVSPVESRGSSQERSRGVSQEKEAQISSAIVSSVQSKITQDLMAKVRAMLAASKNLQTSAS
UniProt Q16181: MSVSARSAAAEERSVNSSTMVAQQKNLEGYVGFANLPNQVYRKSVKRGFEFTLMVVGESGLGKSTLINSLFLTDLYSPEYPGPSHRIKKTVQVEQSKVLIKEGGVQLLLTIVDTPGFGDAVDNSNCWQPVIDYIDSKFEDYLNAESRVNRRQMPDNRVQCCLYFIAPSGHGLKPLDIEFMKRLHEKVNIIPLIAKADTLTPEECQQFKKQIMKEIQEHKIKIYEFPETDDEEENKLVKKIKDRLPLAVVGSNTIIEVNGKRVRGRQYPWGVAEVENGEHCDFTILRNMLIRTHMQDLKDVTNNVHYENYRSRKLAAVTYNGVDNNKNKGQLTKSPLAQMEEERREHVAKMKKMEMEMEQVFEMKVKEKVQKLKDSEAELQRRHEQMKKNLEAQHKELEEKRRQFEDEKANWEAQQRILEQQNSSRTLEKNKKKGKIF
UniProt P61619, whole entry, looked up: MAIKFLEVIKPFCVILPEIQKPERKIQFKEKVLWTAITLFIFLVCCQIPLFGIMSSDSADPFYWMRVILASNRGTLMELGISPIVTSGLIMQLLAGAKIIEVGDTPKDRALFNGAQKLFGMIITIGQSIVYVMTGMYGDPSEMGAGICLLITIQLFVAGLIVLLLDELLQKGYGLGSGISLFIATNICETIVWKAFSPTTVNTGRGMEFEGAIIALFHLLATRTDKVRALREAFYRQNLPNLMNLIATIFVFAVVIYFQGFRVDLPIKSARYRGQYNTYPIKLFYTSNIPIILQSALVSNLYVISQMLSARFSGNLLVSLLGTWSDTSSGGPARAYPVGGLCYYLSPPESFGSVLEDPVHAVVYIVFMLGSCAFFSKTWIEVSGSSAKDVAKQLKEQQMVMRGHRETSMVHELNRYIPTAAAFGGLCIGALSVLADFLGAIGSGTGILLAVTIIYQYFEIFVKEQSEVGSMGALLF
UniProt Q8NC51: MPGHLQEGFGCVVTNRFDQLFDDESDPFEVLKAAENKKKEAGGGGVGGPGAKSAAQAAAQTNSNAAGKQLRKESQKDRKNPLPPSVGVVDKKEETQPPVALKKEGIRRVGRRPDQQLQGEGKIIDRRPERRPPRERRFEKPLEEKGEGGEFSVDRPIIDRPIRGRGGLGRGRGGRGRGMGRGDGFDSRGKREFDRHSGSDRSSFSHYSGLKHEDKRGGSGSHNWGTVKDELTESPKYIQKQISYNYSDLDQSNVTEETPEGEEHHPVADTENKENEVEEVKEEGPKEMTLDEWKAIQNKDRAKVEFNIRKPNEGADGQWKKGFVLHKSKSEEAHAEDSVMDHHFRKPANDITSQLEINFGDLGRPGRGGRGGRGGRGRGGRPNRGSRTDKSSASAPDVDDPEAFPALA
UniProt Q9Y371: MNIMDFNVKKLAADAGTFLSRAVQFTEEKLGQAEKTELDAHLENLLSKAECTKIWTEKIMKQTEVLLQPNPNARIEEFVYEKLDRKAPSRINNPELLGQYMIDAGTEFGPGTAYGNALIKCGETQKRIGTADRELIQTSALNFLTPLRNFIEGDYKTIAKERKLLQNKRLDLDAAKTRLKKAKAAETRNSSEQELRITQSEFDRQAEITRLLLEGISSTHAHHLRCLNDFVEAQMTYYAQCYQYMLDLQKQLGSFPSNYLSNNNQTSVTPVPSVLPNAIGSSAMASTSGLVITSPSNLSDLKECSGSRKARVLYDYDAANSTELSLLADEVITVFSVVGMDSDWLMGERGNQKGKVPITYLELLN

compound: c1cc(OCCN2CCCCC2)cc(-c2n[nH]c3ccc(-c4nnc[nH]4)cc23)c1; experiment: log2 fold change, soluble protein after heating vs DMSO (PISA); higher = thermal stabilisation; K562 cells, 10 uM, 30 min; active = over 0.2 and 3.5 SD of the protein, either way, in both replicates (recomputed)
Summary of the method: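 K562 cells at 2×10^6 cells/mL were treated with 10 μM compound for 30 min. Aliquots were heated for 3 min across 48°C-58°C, pooled, and extracted in PBS with 0.5% NP-40 at 4°C; soluble protein was the supernatant after 21,000xg for 90 min. Soluble protein was quantified by TMTpro 16plex LC-MS/MS with channel sums equalised, and reported as log2 fold change in thermal stability against DMSO controls, with values from duplicates.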

log2 fold change, inactive:
SF3B2 (UniProt Q13435) -0.1, SIGMAR1 (UniProt Q99720) -0.035, SELENBP1 isoform 4 (UniProt Q13228) 0.012, SEPTIN10 isoform 2 (UniProt Q9P0V9) -0.026, SIRT5 (UniProt Q9NXA8) -0.074, SEPTIN6 (UniProt Q14141) -0.021, SERPINB8 (UniProt P50452) 0.024, SGTB (UniProt Q96EQ0) -0.041, SEC62 (UniProt Q99442) 0.004, SEL1L (UniProt Q9UBV2) -0.024, SEC61A2 (UniProt Q9H9S3) -0.079, SGMS1 (UniProt Q86VZ5) -0.113, SFSWAP isoform 2 (UniProt Q12872) -0.228, SEPTIN7 (UniProt Q16181) -0.008, SEC61A1 (UniProt P61619) -0.077, SHOC2 (UniProt Q9UQ13) 0.251, SERBP1 (UniProt Q8NC51) -0.108, SH3GLB1 isoform 2 (UniProt Q9Y371) -0.116
